Assay [1] concerns ReNCell VM. Put plainly: neuronal differentiation score (DCX+ cell fraction vs untreated, manual image score) (score (-3 to 3)); higher = more neuronal differentiation. To be noted: 2 uM, 2 weeks.
The subject of assay [2] is ReNCell VM. The assay is described as follows: dopaminergic neuron differentiation score (TH+ cell fraction vs untreated, manual image score) (score (0 to 3)); higher = more TH+ dopaminergic neuron differentiation. To be noted: 2 uM, 4 weeks, BDNF 10 ng/ml + GDNF 10 ng/ml.

15 compounds from the supplement of paper PMC4635364 can be followed below.

SMILES strings stand for the structures. Where a name gives a salt, the structure may show the parent alone. Some of the results follow. Repeats in this data set agree poorly, so a single value says little.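 Cells: ReNCell VM human fetal ventral-midbrain neural progenitors, differentiated mitogen-free. Blinded raters compared doublecortin-stained (early neurons) or tyrosine hydroxylase-stained (dopaminergic neurons) images with untreated wells, where 0 means no change. After repeats and both raters were averaged, compounds scoring 2 or above became hits for retesting.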

Regarding `C[C@@H]1C[C@H](O)[C@@]2(O)[C@]13CC(=O)OC[C@@]2(C)[C@@](C)(O)C(=O)C3`, in the assay on ReNCell VM [1] (library: Spectrum), the neuronal differentiation score is inactive: 0. For the same compound, in the assay on ReNCell VM [2] (library: Spectrum), the “dopaminergic neuron differentiation score” value was inactive: 0.
Take `O=c1oc2ccccc2c(O)c1C(c1ccccc1O)c1c(O)c2ccccc2oc1=O`: the neuronal differentiation score in the assay on ReNCell VM [1] (library: Natural) was inactive: 0. Moreover, the “dopaminergic neuron differentiation score” value in the assay with ReNCell VM [2] (library: Natural) is inactive: 0.
`COc1ccccc1N1CCNCC1`: in the assay on ReNCell VM [1] (library: Spectrum), the neuronal differentiation score is inactive: 0. For the same compound, the “dopaminergic neuron differentiation score” value with ReNCell VM [2] (library: Spectrum) was inactive: 0.
Turning to `NCCc1c[nH]c2ccccc12` [Tryptamine hydrochloride], the neuronal differentiation score in the assay on ReNCell VM [1] (library: LOPAC) was inactive: 0. For the same compound, in the assay with ReNCell VM [2] (library: LOPAC), the “dopaminergic neuron differentiation score” value was inactive: 0.
Turning to `COC1=CC(=O)O[C@@H](/C=C/c2ccccc2)C1` [Kawain], the neuronal differentiation score in the assay on ReNCell VM [1] (library: Phytochemical) is inactive: 0. The “dopaminergic neuron differentiation score” value with ReNCell VM [2] (library: Phytochemical) is inactive: 0.
Turning to `C[C@]12CC[C@H](O)CC1=CC[C@@H]1[C@@H]2CC[C@]2(C)C(=O)CC[C@@H]12`, the neuronal differentiation score in the assay on ReNCell VM [1] (library: Spectrum) is inactive: 0. Besides, in the assay with ReNCell VM [2] (library: Spectrum), the “dopaminergic neuron differentiation score” value was inactive: 0.
In the case of `C[C@@H](N)[C@@H](O)c1ccccc1`, the neuronal differentiation score in the assay with ReNCell VM [1] (library: Spectrum) is inactive: 0. The “dopaminergic neuron differentiation score” value in the assay on ReNCell VM [2] (library: Spectrum) is inactive: 0.
Consider `NP(N)(=O)NC(=O)c1ccc(F)cc1` [Flurofamide], for which the neuronal differentiation score in the assay with ReNCell VM [1] (library: Tocriscreen) is inactive: 0. In addition, the “dopaminergic neuron differentiation score” value in the assay with ReNCell VM [2] (library: Tocriscreen) is inactive: 0.
Consider `CC(C)(N)Cc1ccccc1` [Phentermine hydrochloride], for which the neuronal differentiation score with ReNCell VM [1] (library: Prestwick) was inactive: 0. The “dopaminergic neuron differentiation score” value in the assay with ReNCell VM [2] (library: Prestwick) is inactive: 0.
As to `CC(C)(c1ccc(OCC2CO2)cc1)c1ccc(OCC2CO2)cc1` (stereo not given), the neuronal differentiation score in the assay on ReNCell VM [1] (library: Tocriscreen) was inactive: 0. Also, the “dopaminergic neuron differentiation score” value in the assay with ReNCell VM [2] (library: Tocriscreen) is inactive: 0.
Take `COc1cccc2c1cc([N+](=O)[O-])c1c(C(=O)O)cc3c(c12)OCO3` [Aristolochic Acid]: the neuronal differentiation score in the assay with ReNCell VM [1] (library: Phytochemical) was inactive: 0. Moreover, the “dopaminergic neuron differentiation score” value with ReNCell VM [2] (library: Phytochemical) was inactive: 0.
With `NC(=S)N/N=C/c1coc2ccccc2c1=O.[Cl][Cu][Cl]`, the neuronal differentiation score in the assay on ReNCell VM [1] (library: Tocriscreen) is inactive: 0. Moreover, in the assay on ReNCell VM [2] (library: Tocriscreen), the “dopaminergic neuron differentiation score” value was inactive: 0.
For the compound `O=c1ccc2cc(O[C@@H]3O[C@H](CO)[C@@H](O)[C@H](O)[C@H]3O)c(O)cc2o1` [Esculin Hydrate], the neuronal differentiation score in the assay with ReNCell VM [1] (library: Phytochemical) was inactive: 0. The “dopaminergic neuron differentiation score” value in the assay with ReNCell VM [2] (library: Phytochemical) was inactive: 0.
On to `CCOc1cc(C=O)ccc1O`, for which the neuronal differentiation score in the assay with ReNCell VM [1] (library: Spectrum) is inactive: 0. Moreover, the “dopaminergic neuron differentiation score” value in the assay on ReNCell VM [2] (library: Spectrum) was inactive: 0.
For `CC[C@@H](C(=O)[C@@H](C)[C@@H](O)[C@H](C)[C@@H]1O[C@@H]([C@@H](CC)C(=O)O)CC[C@@H]1C)[C@H]1O[C@]2(C=C[C@@H](O)[C@]3(CC[C@@](C)([C@H]4CC[C@](O)(CC)[C@H](C)O4)O3)O2)[C@H](C)C[C@@H]1C`, in the assay on ReNCell VM [1] (library: Spectrum), the neuronal differentiation score is inactive: 0. Further, the “dopaminergic neuron differentiation score” value in the assay on ReNCell VM [2] (library: Spectrum) is inactive: 0.
